Laboratory results as given in PMC9820592, “Novel Chiral Ru(II) Complexes as Potential c-myc G-quadruplex DNA Stabilizers Inducing DNA Damage to Suppress Triple-Negative Breast Cancer Progression” (International Journal of Molecular Sciences, 2022).

How the values were obtained:
c-myc G-quadruplex DNA [1] = test: UV titration (electronic absorption) with c-myc G4 DNA; assay type: binding, human; conditions: complex 20 μM, Tris-HCl-KCl buffer pH 7.4
MDA-MB-231 cells = test: Cellular localization by confocal microscopy; assay type: cell-based, human; conditions: 24 h
c-myc G-quadruplex DNA [2] = test: CD spectrum upon addition of c-myc G4 DNA; assay type: binding, human; conditions: complex 20 μM; positive signal for Λ, negative signal for Δ

Row | Substance | hypochromism (c-myc G-quadruplex DNA [1]) [%] | cellular localization (MDA-MB-231 cells; 5 μM) | cellular localization (MDA-MB-231 cells; 10 μM) | strength of the CD signal at 290 nm after addition of c-myc G4 DNA (c-myc G-quadruplex DNA [2]) [%]
1 | Δ-[Ru(bpy)2(3-NBEDPPZ)](ClO4)2 [Δ−3] | 9.91 | could enter the cell nucleus | further increased the enrichment in the cell nucleus | 62.6
2 | Λ-[Ru(bpy)2(3-NBEDPPZ)](ClO4)2 [Λ−3] | 17.4 | could enter the cytoplasm | the majority of the complex remained abundant in the cytoplasm | 63.1
